Measurements as given in article PMC7194030 (Science translational medicine, 2019).
Counter-ions that a name gives are not always drawn.

System: Mx1-Cre Srsf2P95H/WT MDS mice
Type: in vivo

Compound: Cc1ccccc1C(OCCN(C)C)c1ccccc1 (centres unmarked) [orphenadrine citrate]
- Survival of MDS disease mice (OR 100 mg/kg daily, to a level similar to control wild-type mice): extended the survival
- Weight loss, liver or kidney function (mouse, in vivo): no substantial effects
